Assay results published in PubChem BioAssay AID504467 (National Center for Advancing Translational Sciences (NCATS), 2011).
About 7,700 (2.3%) of roughly 330,000 compounds were called active. Inconclusive results, whose numbers are uncertain, are shown with a selection of clear calls. Calls come from the whole dose curve; as a rule, active = well fitted inhibition curve with a large enough effect; inconclusive = small, poorly fitted or top-dose-only effect, or effect the other way; inactive = flat fitted curve, though single readings scatter. Potencies beside an inconclusive call are fits to weak or partial responses and may not hold up.

Assay: qHTS screen for small molecules that inhibit ELG1-dependent DNA repair in human embryonic kidney (HEK293T) cells expressing luciferase-tagged ELG1; note: nearly all actives have a fitted effect of over 55% in size
Conditions: HEK293T ELG1-luciferase reporter, luminescence, 16 h, DNA damage induced by 5-fluorouridine; series mostly up to 46.1 µM
Procedure, shortened: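 HEK293T cells expressing luciferase-tagged ELG1 (2,000/well) received 5-Fluorouridine plus compound or DMSO for 16 hr at 37 °C. Luciferase was read by ONE-Glo luminescence after 30 min at room temperature.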
Potency is the fitted concentration of half-maximal effect.

| Compound | Potency |
| --- | --- |
| Cc1nnc(NC(=O)CSc2nc3ccccc3[nH]2)s1 | inconclusive: 23.1 µM [activator, partial curve, poor fit] |
| COc1ccc(C)cc1N(C(=O)c1ccc(F)cc1)c1nc2ccccc2s1 | inactive |
| COc1ccccc1C(=O)Nc1nnc(SCC(=O)NCC2CCCO2)s1 (stereo unspecified) | inconclusive: 4.61 µM [activator, full curve] |
| c1ccc2c(c1)Cc1ccccc1O2 | inactive |
| COc1ccc(-c2cc(C(=O)NCc3cccs3)no2)cc1 | inconclusive: 6.51 µM [activator, partial curve] |
| COc1cc(C(=O)N2CCN(c3ccc(C)cc3C)CC2)cc(OC)c1OC | inconclusive: 5.8 µM [inhibitor, full curve, poor fit] |
| CC(=O)Nc1ccc(OCC(=O)Nc2ccc(Cl)c(S(=O)(=O)N3CCOCC3)c2)cc1 | active: 5.8 µM |
| Cc1ccc(S(=O)(=O)N2CCN(C3CC(=O)N(CCc4ccccc4)C3=O)CC2)cc1C (stereo unspecified) | inconclusive: 20.6 µM [inhibitor, single point] |
| CC1CCN(C(=O)CSc2nc3ccccc3[nH]2)CC1 | inconclusive: 16.4 µM [activator, partial curve] |
| O=C(Nc1ccc2nccnc2c1)c1ccco1 | inconclusive: 29.1 µM [activator, single point] |
| COc1cc(C2C(C#N)=C(SC)NC3=C2C(=O)CCC3)ccc1O (stereo unspecified) | inactive |
| Cc1ccccc1NS(=O)(=O)c1nnc(NC(=O)CC(C)C)s1 | inactive |
| O=C(/C=C/Nc1ccccc1)c1ccc(Cl)cc1Cl | inconclusive: 1.41 µM [activator, partial curve, poor fit] |
| CCc1nc2ccccc2nc1N1CCN(S(=O)(=O)c2ccc(Cl)cc2)CC1 | inactive |
| COc1cc(C(=O)NC(C)CCc2ccccc2)cc(OC)c1OC (stereo unspecified) | inactive |
| CCC(C)N(C)C1CCN(C(=S)Nc2cccc(SC)c2)CC1 (stereo unspecified) | inactive |
| O=C1CS/C(=N/N=C/c2cccs2)N1Cc1ccc(F)cc1 | active: 20.6 µM |
| CCN(C[C@H]1N[C@@](CC)(C(=O)OC)[C@H]2C(=O)N(Cc3ccccc3)C(=O)[C@@H]12)C(=O)COc1ccccc1 | inactive |
| O=C(COC(=O)c1ncc(Cl)c(Cl)c1Cl)NCCc1ccccc1 | inactive |
| O=C(/C=C/c1c(F)cccc1Cl)N1CCOCC1 | inconclusive: 14.6 µM [activator, partial curve] |
| CC(=O)c1sc(NC(=O)C2CCN(C(=O)c3ccccc3C)CC2)nc1-c1ccccc1 | inconclusive: 20.6 µM [inhibitor, single point] |
| COc1ccc(/C=C/C(=O)NC(C)CCc2ccccc2)cc1OC (stereo unspecified) | inconclusive: 18.3 µM [inhibitor, partial curve, poor fit] |
| CCN(CC)S(=O)(=O)c1ccc(N/N=C(\C)c2ccncc2)nc1 | inactive |
| O=C(CN1CCSCC1)N/N=C/c1ccc(Cl)cc1 | inconclusive: 18.3 µM [activator, partial curve, poor fit] |

| Compound | Potency |
| --- | --- |
| O=c1[nH]ncc2c3ccccc3n(Cc3cccc(Cl)c3)c12 | inactive |
| Cn1nc(-c2ccccc2)nc1-c1ccccc1 | inconclusive: 14.1 µM [activator, partial curve] |
| COc1ccc(-c2nnn(CC(=O)N(Cc3cccs3)C(C)C(=O)NCCC(C)C)n2)cc1OC (stereo unspecified) | inconclusive: 23.1 µM [inhibitor, single point] |
| CCOC(=O)c1ccccc1OCc1cc(/C=N/NC(=O)c2cccnc2)ccc1OC | inconclusive: 18.3 µM [inhibitor, partial curve] |
| CC(c1ccco1)N(C(=O)COc1ccc(Cl)cc1Cl)c1ccccn1 (stereo unspecified) | inconclusive: 3.55 µM [activator, partial curve, poor fit] |
| Cc1ccc(N(C)S(=O)(=O)c2cccc(C(=O)N3CCN(Cc4ccccc4)CC3)c2)cc1 | inconclusive: 25.9 µM [inhibitor, single point] |
| COc1ccc(-c2sc3ccc(OC)cc3c2C#Cc2ccccn2)cc1 | inconclusive: 2.91 µM [inhibitor, full curve] |
| O=C(/C=C/c1ccco1)NC(=S)Nc1ccc(N2CCCC2)cc1 | inconclusive: 29.1 µM [inhibitor, single point] |
| COc1ccc(CCN2CC(C#N)=C3c4cc(OC)c(OC)cc4CCN3C2)cc1OC | active: 20.6 µM |
| COc1ccc(NC(=O)CNC(=O)c2nn(-c3ccc(OC)cc3OC)c(=O)c3ccccc23)c(OC)c1 | inconclusive: 29.1 µM [inhibitor, single point] |
| CCOC(=O)c1c(C)sc2c1N(C(C)=O)c1cc(Cl)ccc1S2 | inactive |
| O=C(Nc1ccc2oc(=O)ccc2c1)c1ccc2ccccc2c1 | inconclusive: 13 µM [activator, partial curve, poor fit] |
| COc1ccc(C(=O)O/N=C(\N)c2ccc(Br)cc2)cc1 | inconclusive: 20.6 µM [activator, partial curve] |
| CN(C)S(=O)(=O)c1cccc(NC(=O)CSc2nc3ccccc3[nH]2)c1 | active: 13 µM |
| COc1ccc(/C=C2/SC(=S)N(NS(=O)(=O)c3ccc(C)cc3)C2=O)cc1 | inactive |
| COc1ccc(-c2noc(CCC(=O)N3CCN(Cc4ccccc4)CC3)n2)cc1 | inconclusive: 23.1 µM [inhibitor, single point] |
| COc1ccc(-c2csc3ncnc(Oc4ccc5c(C)cc(=O)oc5c4)c23)cc1 | inconclusive: 18.4 µM [inhibitor, partial curve] |
| COc1cc(C(=O)NC(=S)N(CCc2ccccc2)CCc2ccccc2)cc(OC)c1OC | active: 18.4 µM |
| O=S(=O)(c1ccc(F)cc1)N(CCO)CC(O)Cn1c2ccccc2c2ccccc21 (stereo unspecified) | inactive |
| CC(=O)c1c(C)[nH]c(C(=O)C(C)Sc2nnc(NC3CC3)s2)c1C (stereo unspecified) | inactive |
| Cc1ccc(CNC(=O)c2ccc(C#CC(C)(C)O)s2)cc1 | inconclusive: 32.6 µM [activator, partial curve, poor fit] |
| CCc1nnc(NC(=O)CSc2ccc(-c3nc4ccccc4[nH]3)cn2)s1 | inconclusive: 23.1 µM [activator, partial curve] |
| CC#CCN(CC#CC)S(=O)(=O)c1ccc(S(=O)(=O)N2CCOCC2)cc1 | inactive |
| COc1ccccc1N1CCN(C(=O)c2sc3nc(-c4ccc(F)cc4)cn3c2C)CC1 | active: 18.4 µM |

An excerpt of these results, with each value named:
CCOC(=O)c1c(C)sc2c1N(C(C)=O)c1cc(Cl)ccc1S2
  Potency: inactive
O=C(Nc1ccc2oc(=O)ccc2c1)c1ccc2ccccc2c1
  Potency: inconclusive: 13 µM [activator, partial curve, poor fit]

Single values from the entries so far.
Potency, Cc1ccc(N(C)S(=O)(=O)c2cccc(C(=O)N3CCN(Cc4ccccc4)CC3)c2)cc1 reads inconclusive: 25.9 µM [inhibitor, single point]
Potency, CC#CCN(CC#CC)S(=O)(=O)c1ccc(S(=O)(=O)N2CCOCC2)cc1 reads inactive
Potency, COc1ccc(CCN2CC(C#N)=C3c4cc(OC)c(OC)cc4CCN3C2)cc1OC reads active: 20.6 µM

(cont.)

| Compound | Potency |
| --- | --- |
| CN(c1ccc(OCC(=O)NC2CCC(O)CC2)cc1)S(=O)(=O)c1ccc(Cl)cc1 (stereo unspecified) | inactive |
| O=C(CCCN1C(=O)/C(=C/c2ccccc2Cl)SC1=S)N1CCCC1 | inconclusive: 29.1 µM [inhibitor, single point] |
| C(#Cc1ccccc1)Cn1nnc2ccccc21 | inconclusive: 23.1 µM [activator, partial curve] |
| CCOc1ccccc1OCC(=O)Nc1cc2c(cc1C(=O)O)OCCCO2 | inactive |
| COc1cc(CN2CCc3ccccc3C2)ccc1O | inconclusive: 29.1 µM [activator, single point] |
| CC(C)(C)OC(=O)NCCc1nnc(SCc2cccc(Cl)c2)o1 | inconclusive: 23.1 µM [inhibitor, single point] |
| CC1CCC/C(=C\Nc2ccc3c(c2)OCO3)C1=O (stereo unspecified) | inconclusive: 10.3 µM [activator, partial curve] |
| O=C(COC(=O)c1cccc(NS(=O)(=O)c2ccc(F)c(F)c2)c1)NC(=O)NC1CCCC1 | inconclusive: 16.4 µM [inhibitor, single point] |
| COC(=O)c1ccc(Nc2cc(C)nc3ncnn23)cc1 | inconclusive: 29.1 µM [activator, single point] |
| O=C(c1cnc(N2CCN(c3ncccn3)CC2)c2ccccc12)N1CCN(c2ccccn2)CC1 | inconclusive: 25.9 µM [inhibitor, single point] |
| CC(NC(=O)c1csc2ccccc12)C1CCCO1 (stereo unspecified) | inconclusive: 23.1 µM [activator, partial curve] |
| COc1ccccc1NC(=O)CC(c1ccc(F)cc1)c1ccco1 (stereo unspecified) | inconclusive: 2.59 µM [inhibitor, partial curve, poor fit] |
| CCOC(=O)c1cc([N+](=O)[O-])c([N+](=O)[O-])cc1NC(C)=O | inconclusive: 29.1 µM [inhibitor, single point] |
| CC(C)(C)C1CCC(=NNC(=O)c2ccc(Br)o2)CC1 (stereo unspecified) | inconclusive: 29.1 µM [activator, single point] |
| COc1cccc(NC(=O)c2ccc3c(c2)N(CC(=O)N2CCCCC2)C(=O)C(C)(C)O3)c1 | inconclusive: 23.1 µM [inhibitor, partial curve] |
| COc1ccc2c(c1)[nH]c1c(=O)n(CC3CCCO3)cnc12 (stereo unspecified) | inconclusive: 20.6 µM [activator, partial curve] |
| CC(=O)c1c(C)[nH]c(C(=O)OCC(=O)Nc2ccc(Cl)c(S(=O)(=O)N(C)C)c2)c1C | active: 11.6 µM |
| COc1ccc(-n2nnnc2/C=C\Nc2ccc(C)cc2)cc1 | inactive |
| Nc1ccccc1Nc1ccccc1 | inactive |
| Cc1cc(C)nc(Sc2nc(Cl)nc(N(c3ccccc3)c3ccccc3)n2)n1 | inconclusive: 18.4 µM [activator, partial curve, poor fit] |
| Cc1ccc(CNC(=O)C2CCC(=O)N(CCc3ccccc3)C2)s1 (stereo unspecified) | inconclusive: 16.4 µM [activator, partial curve, poor fit] |
| O=C(Nc1nnc(-c2cccnc2)o1)c1cccc([N+](=O)[O-])c1 | active: 18.3 µM |
| Cc1nn(-c2ccccc2)c(Cl)c1/C=N/NC(N)=O | inconclusive: 23.1 µM [activator, single point] |
